Results reported in US20150024955A1, “Methods of Identifying Modulators of Dephosphorylation of Histone Deacetylase” (THE J. DAVID GLADSTONE INSTITUTES, priority 2006, published 2015).
Results are given in words; binding and its absence hold for the method and conditions named. Some binding calls cover weakened binding; strength is not graded here. For part of these data: Where a sequence is shown, tags or fusion partners need not be part of it.

The chains behind the UniProt entries cited, without tags or fusion partners.
UniProt Q8C2B3: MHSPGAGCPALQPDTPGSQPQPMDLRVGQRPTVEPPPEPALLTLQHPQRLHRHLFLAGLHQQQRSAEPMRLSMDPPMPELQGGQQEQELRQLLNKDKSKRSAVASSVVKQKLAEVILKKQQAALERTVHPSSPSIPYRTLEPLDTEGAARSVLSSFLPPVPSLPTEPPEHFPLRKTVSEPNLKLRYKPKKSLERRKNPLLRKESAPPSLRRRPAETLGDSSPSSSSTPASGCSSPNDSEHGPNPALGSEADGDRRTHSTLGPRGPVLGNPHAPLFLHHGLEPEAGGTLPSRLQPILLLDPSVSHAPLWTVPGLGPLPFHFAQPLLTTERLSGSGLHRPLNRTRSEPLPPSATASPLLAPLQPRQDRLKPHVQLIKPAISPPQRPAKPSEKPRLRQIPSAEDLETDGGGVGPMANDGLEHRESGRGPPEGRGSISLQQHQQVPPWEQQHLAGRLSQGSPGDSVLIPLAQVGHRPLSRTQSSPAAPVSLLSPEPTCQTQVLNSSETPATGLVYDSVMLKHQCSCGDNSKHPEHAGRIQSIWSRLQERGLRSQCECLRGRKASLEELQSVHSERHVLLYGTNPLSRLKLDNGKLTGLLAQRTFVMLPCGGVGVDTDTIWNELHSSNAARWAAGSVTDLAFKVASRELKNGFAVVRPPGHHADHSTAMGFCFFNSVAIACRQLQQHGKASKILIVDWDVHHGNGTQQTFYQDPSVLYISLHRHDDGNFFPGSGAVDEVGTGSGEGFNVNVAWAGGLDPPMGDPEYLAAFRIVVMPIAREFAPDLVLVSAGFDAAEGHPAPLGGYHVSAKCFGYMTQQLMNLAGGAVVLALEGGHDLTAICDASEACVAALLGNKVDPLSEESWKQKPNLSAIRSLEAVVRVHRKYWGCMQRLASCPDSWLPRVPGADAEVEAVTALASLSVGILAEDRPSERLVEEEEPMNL

T1: FLAG-tagged human HDAC7 (human) (UniProt Q8WUI4)
T1 sequence (looked up): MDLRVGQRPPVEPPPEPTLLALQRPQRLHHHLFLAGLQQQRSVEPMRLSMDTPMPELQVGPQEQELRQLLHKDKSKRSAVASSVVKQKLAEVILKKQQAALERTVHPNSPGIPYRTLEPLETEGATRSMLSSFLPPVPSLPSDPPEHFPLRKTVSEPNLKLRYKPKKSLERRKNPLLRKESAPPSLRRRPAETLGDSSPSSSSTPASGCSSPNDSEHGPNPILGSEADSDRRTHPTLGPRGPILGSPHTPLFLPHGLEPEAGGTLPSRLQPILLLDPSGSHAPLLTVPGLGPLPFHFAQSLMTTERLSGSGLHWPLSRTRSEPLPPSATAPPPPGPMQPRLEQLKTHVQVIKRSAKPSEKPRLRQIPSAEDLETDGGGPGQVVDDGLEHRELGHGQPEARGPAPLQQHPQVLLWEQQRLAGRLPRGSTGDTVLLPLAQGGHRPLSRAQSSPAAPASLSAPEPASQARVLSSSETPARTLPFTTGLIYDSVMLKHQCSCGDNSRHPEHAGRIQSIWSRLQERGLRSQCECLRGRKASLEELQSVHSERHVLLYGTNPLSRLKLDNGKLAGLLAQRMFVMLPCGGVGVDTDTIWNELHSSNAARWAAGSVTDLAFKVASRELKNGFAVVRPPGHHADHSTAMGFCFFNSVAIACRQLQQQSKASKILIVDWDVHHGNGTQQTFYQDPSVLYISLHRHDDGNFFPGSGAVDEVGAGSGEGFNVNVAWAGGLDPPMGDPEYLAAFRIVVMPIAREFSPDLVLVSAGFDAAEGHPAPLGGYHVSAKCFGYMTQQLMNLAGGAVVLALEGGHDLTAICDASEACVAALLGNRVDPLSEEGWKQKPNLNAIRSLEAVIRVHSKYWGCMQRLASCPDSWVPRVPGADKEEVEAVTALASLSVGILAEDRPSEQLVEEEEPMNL

B1: Protein phosphatase 1 regulatory subunit 12A (Myosin phosphatase targeting subunit 1) (protein, mouse, UniProt Q9DBR7 1-1029, looked up)
chain: MKMADAKQKRNEQLKRWIGSETDLEPPVVKRQKTKVKFDDGAVFLAACSSGDTDEVLKLLHRGADINYANVDGLTALHQACIDDNVDMVKFLVENGANINQPDNEGWIPLHAAASCGYLDIAEFLIGQGAHVGAVNSEGDTPLDIAEEEAMEELLQNEVNRQGVDIEAARKEEERVMLRDARQWLNSGHISDVRHAKSGGTALHVAAAKGYTEVLKLLIQAGYDVNIKDYDGWTPLHAAAHWGKEEACRILVDNLCDMETVNKVGQTAFDVADEDILGYLEELQKKQTLLHSEKRDKKSPLIESTANMENNQPQKAFKNKETLIIEPEKNASRIESLEHEKADEEEEGKKDESSCSSEEDEEDDSESEAETDKTKPMASVSNAHTSSTQAAPAAVTAPTLSSNQGTPTSPVKKFPISTTKISPKEEERKDESPASWRLGLRKTGSYGALAEISASKEAQKEKDTAGVMRSASSPRLSSSLDNKEKEKDNKGTRLAYVTPTIPRRLASTSDIEEKENRESSSLRTSSSYTRRKWEDDLKKNSSINEGSTYHRSCSFGRRQDDLISCSVPSTTSTPTVTSAAGLQRSLPSSTSTAAKTPPGSSSAGTQSSTSNRLWAEDSTEKEKDSAPTAVTIPVAPTVVNAAAPSTTTLTTTTAGTVSEVRERRRSYLTPVRDEESESQRKARSRQARQSRRSTQGVTLTDLQEAEKTIGRSRSTRTREQENEEKEKEEKEKQDKEKQEEKKESEASREDEYKQKYSRTYDETYTRYRPVSTSSSSAPSSSSLSTLGSTLYASSQLNRPNSLVGITSAYSRGLAKENEREGEKKEEEKEGEDKSQPKSIRERRRPREKRRSTGVSFWTQDSDENEQERQSDTEDGSSKRETQTDSVSRYDSSSTSSSDRYDSLLGRSASYSYLEDRKPYSSRLEKDDSTDFKKLYEQILAENEKLKAQLHDTNMELTDLKLQLEKATQRQERFADRSQLEMEKRERRALERRISEMEEELKMLPDLKADNQRLKDENGALIRVISKLSK
B2: HDAC7 kinase, PKD1 (enzyme, UniProt Q62101 1-918, looked up)
chain: MSVPPLLRPPSPLLPAAAAVAAAAAALVPGSGPAPFPAPGAAPAGGISFHLQIGLSREPVLLLQDSSGDYSLAHVREMACSIVDQKFPECGFYGLYDKILLFRHDPASDNILQLVKIASDIQEGDLIEVVLSASATFEDFQIRPHALFVHSYRAPAFCDHCGEMLWGLVRQGLKCEGCGLNYHKRCAFKIPNNCSGVRRRRLSNVSLTGLGTVRTASAEFSTSVPDEPLLSPVSPGFEQKSPSESFIGREKRSNSQSYIGRPIQLDKLLMSKVKVPHTFVIHSYTRPTVCQFCKKLLKGLFRQGLQCKDCRFNCHKRCAPKVPNNCLGEVTINGELLSPGAESDVVMEEGSDDNDSERNSGLMDDMDEAMVQDTEMALAEGQSGGAEMQDPDADQEDSNRTISPSTSNNIPLMRVVQSVKHTKRRSSTVMKEGWMVHYTSKDTLRKRHYWRLDSKCITLFQNDTGSRYYKEIPLSEILCLEPAKPSALTPVGATPHCFEITTANVVYYVGENVVNPSSSPPNNSVLPSGIGPDVARMWEVAIQHALMPVIPKGSSVGSGSNSHKDISVSISVSNCQIQENVDISTVYQIFPDEVLGSGQFGIVYGGKHRKTGRDVAIKIIDKLRFPTKQESQLRNEVAILQNLHHPGVVNLECMFETPERVFVVMEKLHGDMLEMILSSEKGRLPEHITKFLITQILVALRHLHFKNIVHCDLKPENVLLASADPFPQVKLCDFGFARIIGEKSFRRSVVGTPAYLAPEVLRNKGYNRSLDMWSVGVIIYVSLSGTFPFNEDEDIHDQIQNAAFMYPPNPWKEISHEAIDLINNLLQVKMRKRYSVDKTLSHPWLQDYQTWLDLRELECRIGERYITHESDDSRWEQYAGEQGLQYPAHLISLSASHSDSPEAEEREMKALSERVSIL

Columns and labels:
[1] = target: T1, FLAG-tagged human HDAC7 (human); test: anti-FLAG immunoprecipitation of HDAC7-Flag from DO11.10 cells, Western blot for endogenous partner
[2] = target: endogenous HDAC7 of mouse cells (primary thymocytes; DO11.10-Empty cells) (mouse) (UniProt Q8C2B3); test: immunoprecipitation with α-MYPT1 from mouse primary thymocyte lysate, anti-HDAC7 Western blot
[3] = target: T1, FLAG-tagged human HDAC7 (human); test: anti-FLAG immunoprecipitation of HDAC7-Flag from DO11.10 cells, Western blot

| Binder | binding [1] | binding [2] | binding [3] |
| --- | --- | --- | --- |
| B1 | binds | binds |  |
| B2 |  |  | binds |
